From article PMC5059489, “Mechanistic evaluation and transcriptional signature of a glutathione S-transferase omega 1 inhibitor” (Nature Communications, 2016)
For part of its entries the source gives two or more results. The list is limited to them. There may be further records. The values listed for one entry differ, and nothing given here explains why; dose, time, organism, isomer or construct need not be as stated for each record.

Test system: HCT116p53+/+ cell
Assay: MTT cell proliferation at single concentration
Type: cell-based, human

Row | Compound | % Inhibition of HCT116p53+/+ cell proliferation at 10 µM
1 | CCOc1ccc(NC(=O)CCl)cc1S(=O)(=O)N1CCCCC1 [C1-30] | 45% and 20.7%
2 | CC(C)c1ccc(C(NC(=O)CCl)C(C)C)cc1 (stereo not drawn) [C3-6] | 13.6% and 34.7%
3 | O=C(CCl)N1CCN(S(=O)(=O)c2ccc(F)c(F)c2)CC1 [C5-14] | 28.2% and 11.4%
